This is one part of the list.
Experiments:
Experiment in all cases: log2 fold change, soluble protein after heating vs DMSO (PISA); higher = thermal stabilisation; K562 cells, 10 uM, 30 min; active = over 0.2 and 3.5 SD of the protein, either way, in both replicates (recomputed)
[1] = compound: C1=CC=C(C=C1)[C@H](COC2=CC3=C(C=C2)NC(=O)N3)NC(=O)C4=CC=CN(C4=O)CC5=CC(=C(C=C5)F)F
How it was run: (§1)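 K562 cells at 2×10^6 cells/mL were exposed to 10 μM compound for 30 min, then aliquots were heated for 3 min across 48°C-58°C, pooled, and extracted in PBS containing 0.5% NP-40 at 4°C. The supernatant after 21,000xg for 90 min was taken as soluble protein and measured by TMTpro 16plex LC-MS/MS with channel sums equalised. Thermal stability is reported relative to control samples, with values from duplicates. Fold changes are given on a log2 scale.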

Sequences of proteins named here, by UniProt entry; tags and fusion partners are left off. A change or cut given only in a name is not applied to a line headed by its entry.
UniProt Q96BP3: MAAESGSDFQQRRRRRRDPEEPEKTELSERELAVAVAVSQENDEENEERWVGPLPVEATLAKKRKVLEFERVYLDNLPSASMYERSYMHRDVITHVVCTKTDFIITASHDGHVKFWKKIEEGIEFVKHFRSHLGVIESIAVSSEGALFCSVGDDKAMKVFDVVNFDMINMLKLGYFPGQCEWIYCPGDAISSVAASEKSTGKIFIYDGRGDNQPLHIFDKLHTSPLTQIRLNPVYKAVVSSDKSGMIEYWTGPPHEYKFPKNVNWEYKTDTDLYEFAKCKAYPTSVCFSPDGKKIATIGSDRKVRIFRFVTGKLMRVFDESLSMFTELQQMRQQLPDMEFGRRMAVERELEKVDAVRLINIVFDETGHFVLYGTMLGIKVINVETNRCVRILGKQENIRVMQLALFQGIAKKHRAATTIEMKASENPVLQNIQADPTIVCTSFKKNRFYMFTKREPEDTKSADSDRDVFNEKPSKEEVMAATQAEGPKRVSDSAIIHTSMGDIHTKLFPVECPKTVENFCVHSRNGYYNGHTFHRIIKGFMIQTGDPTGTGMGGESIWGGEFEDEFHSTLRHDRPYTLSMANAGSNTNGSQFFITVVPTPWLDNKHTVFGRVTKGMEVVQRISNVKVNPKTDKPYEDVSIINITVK
UniProt Q14738, whole entry, looked up: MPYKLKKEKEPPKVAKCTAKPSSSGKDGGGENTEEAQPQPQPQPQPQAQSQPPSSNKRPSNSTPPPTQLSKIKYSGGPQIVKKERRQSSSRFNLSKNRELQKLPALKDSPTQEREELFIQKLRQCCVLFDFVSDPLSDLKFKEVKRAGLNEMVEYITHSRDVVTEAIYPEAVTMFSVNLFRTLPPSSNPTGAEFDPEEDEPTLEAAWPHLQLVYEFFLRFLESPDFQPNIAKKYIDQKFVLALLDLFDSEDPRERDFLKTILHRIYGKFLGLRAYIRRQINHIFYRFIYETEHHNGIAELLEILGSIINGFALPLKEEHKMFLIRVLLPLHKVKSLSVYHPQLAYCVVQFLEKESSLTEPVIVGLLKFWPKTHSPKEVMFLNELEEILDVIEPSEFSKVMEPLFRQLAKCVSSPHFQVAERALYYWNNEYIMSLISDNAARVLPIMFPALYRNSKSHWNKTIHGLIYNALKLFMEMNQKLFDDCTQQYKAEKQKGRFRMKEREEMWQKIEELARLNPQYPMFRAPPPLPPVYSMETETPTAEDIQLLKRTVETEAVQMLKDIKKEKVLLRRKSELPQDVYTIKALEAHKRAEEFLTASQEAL
UniProt P42785: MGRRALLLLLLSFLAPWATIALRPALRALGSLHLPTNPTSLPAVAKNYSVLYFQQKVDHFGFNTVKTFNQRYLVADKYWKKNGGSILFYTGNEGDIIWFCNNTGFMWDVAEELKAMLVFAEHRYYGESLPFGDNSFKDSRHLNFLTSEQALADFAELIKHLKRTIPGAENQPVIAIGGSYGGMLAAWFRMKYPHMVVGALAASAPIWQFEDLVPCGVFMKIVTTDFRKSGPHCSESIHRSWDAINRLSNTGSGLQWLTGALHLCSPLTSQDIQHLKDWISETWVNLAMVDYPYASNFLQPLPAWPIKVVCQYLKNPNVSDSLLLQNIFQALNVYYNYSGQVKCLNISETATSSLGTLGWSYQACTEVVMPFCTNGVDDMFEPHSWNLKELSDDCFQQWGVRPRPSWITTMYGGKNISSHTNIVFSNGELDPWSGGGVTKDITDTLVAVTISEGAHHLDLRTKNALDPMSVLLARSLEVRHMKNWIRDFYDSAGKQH
UniProt Q9Y520: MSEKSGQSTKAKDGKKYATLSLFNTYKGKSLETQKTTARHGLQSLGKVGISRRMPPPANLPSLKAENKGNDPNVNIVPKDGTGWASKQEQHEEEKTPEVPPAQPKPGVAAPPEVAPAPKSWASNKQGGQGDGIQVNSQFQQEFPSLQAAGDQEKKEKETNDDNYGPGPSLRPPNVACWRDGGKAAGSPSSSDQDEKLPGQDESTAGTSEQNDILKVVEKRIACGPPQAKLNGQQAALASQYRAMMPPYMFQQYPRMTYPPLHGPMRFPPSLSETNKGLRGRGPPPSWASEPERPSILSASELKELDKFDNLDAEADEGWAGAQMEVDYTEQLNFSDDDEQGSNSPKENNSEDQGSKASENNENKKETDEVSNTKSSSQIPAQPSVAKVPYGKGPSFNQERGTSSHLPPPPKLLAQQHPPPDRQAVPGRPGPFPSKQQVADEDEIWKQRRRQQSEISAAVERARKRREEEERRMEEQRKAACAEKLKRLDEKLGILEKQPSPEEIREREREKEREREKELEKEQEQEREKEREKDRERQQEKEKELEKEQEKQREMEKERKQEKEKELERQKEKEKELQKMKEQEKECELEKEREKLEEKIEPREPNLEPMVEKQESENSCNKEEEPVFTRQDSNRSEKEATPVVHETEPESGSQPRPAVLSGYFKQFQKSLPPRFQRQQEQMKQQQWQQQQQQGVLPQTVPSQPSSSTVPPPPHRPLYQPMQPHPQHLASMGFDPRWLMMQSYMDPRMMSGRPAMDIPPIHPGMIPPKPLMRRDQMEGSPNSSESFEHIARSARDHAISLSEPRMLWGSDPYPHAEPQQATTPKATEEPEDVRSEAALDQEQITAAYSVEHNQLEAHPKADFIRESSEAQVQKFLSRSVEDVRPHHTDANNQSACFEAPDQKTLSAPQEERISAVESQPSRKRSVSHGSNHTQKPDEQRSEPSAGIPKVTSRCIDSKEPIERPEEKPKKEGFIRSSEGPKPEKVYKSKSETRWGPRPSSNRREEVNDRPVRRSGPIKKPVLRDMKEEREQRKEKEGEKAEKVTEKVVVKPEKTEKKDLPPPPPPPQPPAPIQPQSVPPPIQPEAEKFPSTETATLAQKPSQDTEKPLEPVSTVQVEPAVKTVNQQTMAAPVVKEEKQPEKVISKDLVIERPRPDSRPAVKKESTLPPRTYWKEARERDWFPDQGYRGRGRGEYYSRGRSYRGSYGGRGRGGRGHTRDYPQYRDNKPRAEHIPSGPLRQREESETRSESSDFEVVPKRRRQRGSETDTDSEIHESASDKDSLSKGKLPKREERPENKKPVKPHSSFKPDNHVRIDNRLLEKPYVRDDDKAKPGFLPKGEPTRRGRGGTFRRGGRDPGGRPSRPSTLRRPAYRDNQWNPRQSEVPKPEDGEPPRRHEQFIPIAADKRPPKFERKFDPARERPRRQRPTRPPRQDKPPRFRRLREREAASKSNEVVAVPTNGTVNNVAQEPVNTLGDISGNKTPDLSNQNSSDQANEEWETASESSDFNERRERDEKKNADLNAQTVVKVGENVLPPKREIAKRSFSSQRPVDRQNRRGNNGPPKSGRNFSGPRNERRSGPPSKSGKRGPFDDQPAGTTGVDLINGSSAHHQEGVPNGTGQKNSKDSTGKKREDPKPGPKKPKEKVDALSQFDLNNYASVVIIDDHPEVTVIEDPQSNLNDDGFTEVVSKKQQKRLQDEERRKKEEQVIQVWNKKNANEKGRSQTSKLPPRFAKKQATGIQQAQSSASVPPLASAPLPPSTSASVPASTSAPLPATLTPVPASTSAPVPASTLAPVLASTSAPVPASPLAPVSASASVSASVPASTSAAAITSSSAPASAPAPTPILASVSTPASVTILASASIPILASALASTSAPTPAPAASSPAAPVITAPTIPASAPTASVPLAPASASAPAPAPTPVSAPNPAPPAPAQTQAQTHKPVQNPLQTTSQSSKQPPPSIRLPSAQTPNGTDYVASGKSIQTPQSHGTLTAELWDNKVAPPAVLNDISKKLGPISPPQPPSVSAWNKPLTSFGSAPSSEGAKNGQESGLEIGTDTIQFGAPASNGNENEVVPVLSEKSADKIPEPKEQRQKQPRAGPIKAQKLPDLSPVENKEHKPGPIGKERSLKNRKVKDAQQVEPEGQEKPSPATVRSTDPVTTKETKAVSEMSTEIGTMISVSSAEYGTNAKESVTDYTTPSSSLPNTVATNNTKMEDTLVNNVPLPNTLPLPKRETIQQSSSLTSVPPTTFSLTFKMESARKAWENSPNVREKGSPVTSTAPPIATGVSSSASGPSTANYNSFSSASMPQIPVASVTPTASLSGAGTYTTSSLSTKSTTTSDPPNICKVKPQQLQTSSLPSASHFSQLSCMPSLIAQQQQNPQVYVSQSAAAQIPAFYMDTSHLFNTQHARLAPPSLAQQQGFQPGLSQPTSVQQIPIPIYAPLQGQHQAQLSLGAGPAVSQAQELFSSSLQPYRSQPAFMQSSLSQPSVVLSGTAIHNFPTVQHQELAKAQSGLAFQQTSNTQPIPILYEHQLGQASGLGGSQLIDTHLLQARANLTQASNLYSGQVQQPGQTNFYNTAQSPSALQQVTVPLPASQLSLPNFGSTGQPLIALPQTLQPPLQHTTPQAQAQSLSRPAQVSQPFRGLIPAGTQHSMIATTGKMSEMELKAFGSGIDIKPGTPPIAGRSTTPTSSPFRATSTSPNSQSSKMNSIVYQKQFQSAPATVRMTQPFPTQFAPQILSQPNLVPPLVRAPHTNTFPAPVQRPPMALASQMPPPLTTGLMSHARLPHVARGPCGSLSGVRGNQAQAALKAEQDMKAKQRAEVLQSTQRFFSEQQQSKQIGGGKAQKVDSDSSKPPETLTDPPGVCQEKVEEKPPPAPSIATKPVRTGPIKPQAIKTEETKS
UniProt K7ELL7: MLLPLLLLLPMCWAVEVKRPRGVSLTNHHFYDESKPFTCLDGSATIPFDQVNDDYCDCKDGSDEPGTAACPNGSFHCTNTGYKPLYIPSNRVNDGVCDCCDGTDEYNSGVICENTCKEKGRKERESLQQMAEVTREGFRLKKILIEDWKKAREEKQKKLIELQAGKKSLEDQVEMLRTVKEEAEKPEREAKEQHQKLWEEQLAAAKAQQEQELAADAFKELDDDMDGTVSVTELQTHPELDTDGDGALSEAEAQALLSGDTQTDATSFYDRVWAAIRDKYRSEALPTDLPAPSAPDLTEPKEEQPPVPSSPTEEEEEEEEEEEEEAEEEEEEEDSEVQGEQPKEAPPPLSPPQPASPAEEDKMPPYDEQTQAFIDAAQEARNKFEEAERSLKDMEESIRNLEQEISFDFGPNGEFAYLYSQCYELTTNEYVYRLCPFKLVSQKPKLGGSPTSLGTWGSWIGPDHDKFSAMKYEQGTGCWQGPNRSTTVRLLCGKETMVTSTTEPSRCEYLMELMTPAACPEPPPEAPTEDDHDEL
UniProt Q6NYC8: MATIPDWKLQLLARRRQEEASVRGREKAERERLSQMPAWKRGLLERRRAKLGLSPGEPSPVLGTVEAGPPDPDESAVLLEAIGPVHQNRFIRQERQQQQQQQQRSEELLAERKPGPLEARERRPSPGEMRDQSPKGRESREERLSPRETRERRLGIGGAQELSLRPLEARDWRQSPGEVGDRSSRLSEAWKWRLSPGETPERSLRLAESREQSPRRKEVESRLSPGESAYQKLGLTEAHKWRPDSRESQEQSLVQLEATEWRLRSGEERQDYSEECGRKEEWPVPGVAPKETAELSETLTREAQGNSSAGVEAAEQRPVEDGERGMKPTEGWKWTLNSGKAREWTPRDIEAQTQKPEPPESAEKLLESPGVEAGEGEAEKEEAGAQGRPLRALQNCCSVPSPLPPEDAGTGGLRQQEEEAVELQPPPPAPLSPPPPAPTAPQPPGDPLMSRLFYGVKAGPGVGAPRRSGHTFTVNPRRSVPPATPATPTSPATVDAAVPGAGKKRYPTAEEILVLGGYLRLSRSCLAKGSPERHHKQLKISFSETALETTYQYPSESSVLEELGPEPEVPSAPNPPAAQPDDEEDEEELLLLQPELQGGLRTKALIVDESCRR
UniProt Q9Y3B1: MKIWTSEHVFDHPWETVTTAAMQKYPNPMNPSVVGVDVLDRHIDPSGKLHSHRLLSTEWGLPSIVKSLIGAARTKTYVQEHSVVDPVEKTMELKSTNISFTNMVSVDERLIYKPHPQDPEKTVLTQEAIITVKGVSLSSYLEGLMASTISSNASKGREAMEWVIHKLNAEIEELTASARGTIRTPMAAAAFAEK
UniProt Q2NL68: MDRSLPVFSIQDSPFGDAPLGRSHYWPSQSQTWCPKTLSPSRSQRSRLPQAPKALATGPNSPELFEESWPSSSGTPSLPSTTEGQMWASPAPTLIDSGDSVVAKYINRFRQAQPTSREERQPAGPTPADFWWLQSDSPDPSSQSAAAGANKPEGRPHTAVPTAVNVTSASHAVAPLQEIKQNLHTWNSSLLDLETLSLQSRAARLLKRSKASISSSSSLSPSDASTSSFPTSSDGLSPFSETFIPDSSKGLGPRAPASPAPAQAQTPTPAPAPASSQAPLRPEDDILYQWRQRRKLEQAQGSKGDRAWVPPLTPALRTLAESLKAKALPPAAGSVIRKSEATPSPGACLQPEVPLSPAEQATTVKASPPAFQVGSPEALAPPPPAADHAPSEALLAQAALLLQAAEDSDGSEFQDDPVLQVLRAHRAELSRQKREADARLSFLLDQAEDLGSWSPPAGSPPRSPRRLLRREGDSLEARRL

[2] = compound: CC1=C(SC2=C1C(=N[C@H](C3=NN=C(N32)C)CC(=O)N)C4=CC=C(C=C4)Cl)C
How it was run: as §1

[3] = compound: CC1=C2C(=CC=C1)N=C(N(C2=O)C3=CC=CC=C3C)CN4C=NC5=C(N=CN=C54)N
How it was run: as §1

[4] = compound: Cc1sc2c(c1C)C(c1ccc(Cl)cc1)=N[C@@H](CC(=O)OC(C)(C)C)c1nnc(C)n1-2
How it was run: as §1

[5] = compound: c1ccc([C@@H]2C[C@H]2NC2CCNCC2)cc1
How it was run: as §1

Measured: log2 fold change

PRPF19 (UniProt Q9UMS4)
inactive: [1] 0.023 | [2] 0.042 | [3] -0.008 | [4] 0.002 | [5] 0.008

PPP6C isoform 3 (UniProt O00743)
inactive: [1] 0.045 | [2] 0.001 | [3] -0.017 | [4] 0.006 | [5] 0.03

PRMT7 (UniProt Q9NVM4)
inactive: [1] -0.051 | [2] 0.015 | [3] 0.056 | [4] 0.009 | [5] -0.027

PPWD1 (UniProt Q96BP3)
inactive: [1] -0.028 | [2] 0.099 | [3] 0.071 | [4] 0.015 | [5] 0

PPP2R5D (UniProt Q14738)
inactive: [1] -0.016 | [2] 0.103 | [3] 0.087 | [4] -0.01 | [5] -0.029

PRCP (UniProt P42785)
inactive: [1] 0.023 | [2] -0.036 | [3] -0.061 | [4] 0.018 | [5] 0.062

PPP1R7 (UniProt Q15435)
inactive: [1] -0.017 | [2] 0.066 | [3] 0.017 | [4] -0.042 | [5] -0.038

PRRC2C isoform 7 (UniProt Q9Y520)
inactive: [1] 0.058 | [2] -0.156 | [3] -0.115 | [4] 0.106 | [5] 0.033

PRKCSH (UniProt K7ELL7)
inactive: [1] 0.095 | [2] -0.014 | [3] -0.09 | [4] 0.007 | [5] -0.043

PPP1R18 (UniProt Q6NYC8)
inactive: [1] -0.048 | [2] 0.005 | [3] 0.039 | [4] 0.017 | [5] -0.046

PRELID3B (UniProt Q9Y3B1)
inactive: [4] 0.336

PRG2 (UniProt P13727)
inactive: [2] 0.01 | [3] 0.037 | [4] 0.118 | [5] 0.074

PROSER3 (UniProt Q2NL68)
inactive: [1] 0.134 | [2] -0.1 | [4] -0.043 | [5] 0

Quoted from the listing (2 entries):
PRELID3B (UniProt Q9Y3B1)
inactive: [4] 0.336

PRG2 (UniProt P13727)
inactive: [2] 0.01 | [3] 0.037 | [4] 0.118 | [5] 0.074

Remaining list, next part

PRPF40A (UniProt O75400)
inactive: [1] -0.008 | [2] 0.016 | [3] 0.123 | [4] -0.022 | [5] 0.037
